# Data from the supplement of paper PMC8728848.
# This is one part of the list.
# B1: PX15642A-pgi-501-20-501 (Parabacteroides gingivalis) (protein)
# chain: CELDRDPEGKDFQQPYTSFVQTKQNRDGLYALLRNTENPRMHFYQELQSDMYCTTITDGNSLAPFVNWDLGILNDHGRADEDEVSGIAGYYFVYNRLNQQANAFVNNTEAALQNQVYKNSTEIANAKSFLAEGKVLQALAIWRLMDRFSFHESVTEVNSGAKDLGVILLKEYNPGYIGPRATKAQCYDYILSRLSEAIEVLPENRESVLYVSRDYAYALRARIYLALGEYGKAAADAKMVVDKYPLIGAADASEFENIYRSDANNPEIIFRGFASATLGSFTATTLNGAAPAGKDIKYNPSAVPFQWVVDLYENEDFRKSVYIAKVVKKDKGYLVNKFLEDKAYRDVQDKPNLKVGARYFSVAEVYLILVESALQTGDTPTAEKYLKALSKARGAEVSVVNMEALQAERTRELIGEGSRLRDMVRWSIPNNHDAFETQPGLEGFANTTPLKAQAPVGFYAYTWEFPQRDRQTNPQLIKNWPI
# Assays:
# Assay in all cases: glycan array binding signal (z-score within array); higher = stronger binding
# Settings in all cases: glycan notation: IUPAC condensed, linker removed
# [1] = target: Neu5Ac(a2-3)Gal(b1-4)GlcNAc(b1-2)[Neu5Ac(a2-3)Gal(b1-4)GlcNAc(b1-4)]Man(a1-3)[GlcNAc(b1-4)][Neu5Ac(a2-3)Gal(b1-4)GlcNAc(b1-4)Man(a1-6)]Man(b1-4)GlcNAc(b1-4)GlcNAc
# In short: (§1)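 Glycan array binding is given as a within-array Z-score, which can be read as non-binding when negative. The arrays, 3228 of them, came from the Consortium for Functional Glycomics database and were retained only where the protein sequence was available. Z-scores were averaged across arrays of the same protein sequence at different concentrations or buffers and across linkers.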
# [2] = target: Neu5Ac(a2-3)Gal(b1-4)GlcNAc(b1-2)[Neu5Ac(a2-3)Gal(b1-4)GlcNAc(b1-6)]Man(a1-6)[Neu5Ac(a2-3)Gal(b1-4)GlcNAc(b1-2)Man(a1-3)]Man(b1-4)GlcNAc(b1-4)GlcNAc
# In short: as §1
# [3] = target: Neu5Ac(a2-3)Gal(b1-4)GlcNAc(b1-2)[Neu5Ac(a2-3)Gal(b1-4)GlcNAc(b1-6)]Man(a1-6)[Neu5Ac(a2-3)Gal(b1-4)GlcNAc(b1-2)Man(a1-3)][GlcNAc(b1-4)]Man(b1-4)GlcNAc(b1-4)GlcNAc
# In short: as §1
# [4] = target: Neu5Ac(a2-3)Gal(b1-4)GlcNAc(b1-3)Gal
# In short: as §1
# [5] = target: Neu5Ac(a2-3)Gal(b1-4)GlcNAc(b1-3)Gal(b1-3)GlcNAc
# In short: as §1
# [6] = target: Neu5Ac(a2-3)Gal(b1-4)GlcNAc(b1-3)Gal(b1-4)GlcNAc
# In short: as §1
# [7] = target: Neu5Ac(a2-3)Gal(b1-4)GlcNAc(b1-3)Gal(b1-4)GlcNAc(b1-2)Man(a1-3)[Neu5Ac(a2-3)Gal(b1-4)GlcNAc(b1-3)Gal(b1-4)GlcNAc(b1-2)Man(a1-6)]Man(b1-4)GlcNAc(b1-4)GlcNAc
# In short: as §1
# [8] = target: Neu5Ac(a2-3)Gal(b1-4)GlcNAc(b1-3)Gal(b1-4)GlcNAc(b1-3)Gal(b1-4)GlcNAc
# In short: as §1
# [9] = target: Neu5Ac(a2-3)Gal(b1-4)GlcNAc(b1-3)Gal(b1-4)GlcNAc(b1-3)Gal(b1-4)GlcNAc(b1-2)Man(a1-3)[Neu5Ac(a2-3)Gal(b1-4)GlcNAc(b1-3)Gal(b1-4)GlcNAc(b1-3)Gal(b1-4)GlcNAc(b1-2)Man(a1-6)]GalNAc
# In short: as §1
# [10] = target: Neu5Ac(a2-3)Gal(b1-4)GlcNAc(b1-3)Gal(b1-4)GlcNAc(b1-3)GalNAc
# In short: as §1
# [11] = target: Neu5Ac(a2-3)Gal(b1-4)GlcNAc(b1-3)Gal(b1-4)GlcNAc(b1-3)[Neu5Ac(a2-3)Gal(b1-4)GlcNAc(b1-3)Gal(b1-4)GlcNAc(b1-6)]GalNAc
# In short: as §1
# [12] = target: Neu5Ac(a2-3)Gal(b1-4)GlcNAc(b1-3)Gal(b1-4)GlcNAc(b1-6)[Gal(b1-3)]GalNAc
# In short: as §1
# [13] = target: Neu5Ac(a2-3)Gal(b1-4)GlcNAc(b1-3)Gal(b1-4)[Fuc(a1-3)]GlcNAc
# In short: as §1
# [14] = target: Neu5Ac(a2-3)Gal(b1-4)GlcNAc(b1-3)GalNAc
# In short: as §1
# [15] = target: Neu5Ac(a2-3)Gal(b1-4)GlcNAc(b1-3)[Neu5Ac(a2-3)Gal(b1-4)GlcNAc(b1-6)]GalNAc
# In short: as §1
# [16] = target: Neu5Ac(a2-3)Gal(b1-4)GlcNAc(b1-6)GalNAc
# In short: as §1
# [17] = target: Neu5Ac(a2-3)Gal(b1-4)GlcNAc(b1-6)[Gal(b1-3)]GalNAc
# In short: as §1
# [18] = target: Neu5Ac(a2-3)Gal(b1-4)GlcNAc(b1-6)[Neu5Ac(a2-3)Gal(b1-3)]GalNAc
# In short: as §1
# [19] = target: Neu5Ac(a2-3)Gal(b1-4)GlcNAc6S
# In short: as §1
# [20] = target: Neu5Ac(a2-3)Gal(b1-4)[Fuc(a1-3)]GlcNAc
# In short: as §1
# [21] = target: Neu5Ac(a2-3)Gal(b1-4)[Fuc(a1-3)]GlcNAc(b1-2)Man
# In short: as §1
# [22] = target: Neu5Ac(a2-3)Gal(b1-4)[Fuc(a1-3)]GlcNAc(b1-3)Gal
# In short: as §1
# [23] = target: Neu5Ac(a2-3)Gal(b1-4)[Fuc(a1-3)]GlcNAc(b1-3)Gal(b1-4)GlcNAc
# In short: as §1
# [24] = target: Neu5Ac(a2-3)Gal(b1-4)[Fuc(a1-3)]GlcNAc(b1-3)Gal(b1-4)[Fuc(a1-3)]GlcNAc(b1-3)Gal(b1-4)[Fuc(a1-3)]GlcNAc
# In short: as §1
# [25] = target: Neu5Ac(a2-3)Gal(b1-4)[Fuc(a1-3)]GlcNAc(b1-3)GalNAc
# In short: as §1
# [26] = target: Neu5Ac(a2-3)Gal(b1-4)[Fuc(a1-3)]GlcNAc(b1-6)[Gal(b1-3)]GalNAc
# In short: as §1
# [27] = target: Neu5Ac(a2-3)Gal(b1-4)[Fuc(a1-3)]GlcNAc(b1-6)[Neu5Ac(a2-3)Gal(b1-3)]GalNAc
# In short: as §1
# [28] = target: Neu5Ac(a2-3)Gal(b1-4)[Fuc(a1-3)]GlcNAc6S
# In short: as §1
# [29] = target: Neu5Ac(a2-3)Gal6S(b1-4)GlcNAc
# In short: as §1
# [30] = target: Neu5Ac(a2-3)Gal6S(b1-4)[Fuc(a1-3)]GlcNAc
# In short: as §1
# Neu5Ac(a2-3)GalNAc = target: Neu5Ac(a2-3)GalNAc
# In short: as §1
# [31] = target: Neu5Ac(a2-3)GalNAc(b1-4)GlcNAc
# In short: as §1
# [32] = target: Neu5Ac(a2-3)[GalNAc(b1-4)]Gal(b1-4)Glc
# In short: as §1
# [33] = target: Neu5Ac(a2-3)[GalNAc(b1-4)]Gal(b1-4)GlcNAc
# In short: as §1
# [34] = target: Neu5Ac(a2-3)[GalNAc(b1-4)]Gal(b1-4)GlcNAc(b1-3)GalNAc
# In short: as §1
# [35] = target: Neu5Ac(a2-3)[Neu5Ac(a2-6)]GalNAc
# In short: as §1
# Neu5Ac(a2-6)Gal = target: Neu5Ac(a2-6)Gal
# In short: as §1
binder,measurement,setting,value
B1,glycan array binding signal (z-score),[1],-0.122
same,glycan array binding signal (z-score),[2],0.719
same,glycan array binding signal (z-score),[3],1.44
same,glycan array binding signal (z-score),[4],-0.256
same,glycan array binding signal (z-score),[5],-0.726
same,glycan array binding signal (z-score),[6],0.055
same,glycan array binding signal (z-score),[7],0.992
same,glycan array binding signal (z-score),[8],-0.218
same,glycan array binding signal (z-score),[9],0.742
same,glycan array binding signal (z-score),[10],-0.213
same,glycan array binding signal (z-score),[11],0.885
same,glycan array binding signal (z-score),[12],-0.549
same,glycan array binding signal (z-score),[13],-0.866
same,glycan array binding signal (z-score),[14],0.696
same,glycan array binding signal (z-score),[15],-0.28
same,glycan array binding signal (z-score),[16],-0.346
same,glycan array binding signal (z-score),[17],-1.07
same,glycan array binding signal (z-score),[18],-0.321
same,glycan array binding signal (z-score),[19],-0.486
same,glycan array binding signal (z-score),[20],-0.738
same,glycan array binding signal (z-score),[21],-0.096
same,glycan array binding signal (z-score),[22],0.506
same,glycan array binding signal (z-score),[23],0.535
same,glycan array binding signal (z-score),[24],0.189
same,glycan array binding signal (z-score),[25],3.38
same,glycan array binding signal (z-score),[26],-0.274
same,glycan array binding signal (z-score),[27],-0.034
same,glycan array binding signal (z-score),[28],-1.13
same,glycan array binding signal (z-score),[29],-0.175
same,glycan array binding signal (z-score),[30],-1.24
same,glycan array binding signal (z-score),Neu5Ac(a2-3)GalNAc,-0.441
same,glycan array binding signal (z-score),[31],-0.624
same,glycan array binding signal (z-score),[32],-0.51
same,glycan array binding signal (z-score),[33],-0.639
same,glycan array binding signal (z-score),[34],-1.14
same,glycan array binding signal (z-score),[35],0.508
same,glycan array binding signal (z-score),Neu5Ac(a2-6)Gal,-0.372

# Shown with bars between the fields: part of the list above.
binder | measurement | setting | value
B1 | glycan array binding signal (z-score) | [13] | -0.866
same | glycan array binding signal (z-score) | [14] | 0.696
